Experimental data from PubChem BioAssay AID192 (DTP/NCI, 2004).
The list shows only some results of the screen, not a fair sample: it gathers tests that were run many times, whatever their T/C, doses with no T/C, and many T/C values between a quarter and a half above the control. Other doses and runs of a compound stand elsewhere. T/C: endpoint of the treated group in % of that of the vehicle group. Some doses have a count of surviving animals in place of a T/C: the source files T/C as zero there, which appears to mark a toxic dose or a test without result, not a measured value. Some doses without a T/C left all or most animals alive at the check, yet need not have been tolerated: the source hardly ever lists a survival T/C far under the control, and the zero likely stands for such cases as well. Counts of survivors are from the toxicity check (mostly the fifth day) where no day follows; animals may have died later. Schedules are NCI's codes, read here as Q, the interval in days (D) or hours (H), X, the number of doses. Some entries hold several experiments; the values are given in rising order. Where survival is the endpoint, this PubChem deposit counts one and a half times the control or more as active, and values a quarter to a half above the control carry no call in these data; other NCI protocols may use other cut-offs. Some T/C values are followed by the survivors on the day toxicity was checked, most often the fifth; without a count, all were alive then.

System: BDF1 mice, B16 melanoma ip, median survival T/C
Assay: NCI In Vivo Anticancer Drug Screen. Data for tumor model B16 Melanoma (intraperitoneal) in B6D2F1 (BDF1) mice
Settings: T/C endpoint: median survival time, higher T/C = longer survival
In short: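 Compounds were tested in mice carrying transplantable tumors. Survival or tumor size was recorded, and each value is the treated-group measurement (T) divided by that of the vehicle-treated control group (C).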

[1] = dose: 25.0 mg/kg/injection, schedule: Q01DX009 (ip), vehicle: saline
[2] = dose: 32.0 mg/kg/injection, schedule: Q01DX009 (ip), vehicle: saline
[3] = dose: 64.0 mg/kg/injection, schedule: Q01DX009 (ip), vehicle: saline
[4] = dose: 400.0 mg/kg/injection, schedule: Q01DX009 (ip), vehicle: Klucel (hydroxypropylcellulose) (HPC)
[5] = dose: 100.0 mg/kg/injection, schedule: Q01DX009 (ip), vehicle: saline with Tween-80
[6] = dose: 200.0 mg/kg/injection, schedule: Q01DX009 (ip), vehicle: saline with Tween-80
[7] = dose: 400.0 mg/kg/injection, schedule: Q01DX009 (ip), vehicle: saline with Tween-80
[8] = dose: 1.0 mg/kg/injection, schedule: Q01DX009 (ip), vehicle: saline with Tween-80

O=C(O)CCCc1ccc(N(CCCl)CCCl)cc1
survivor count (dose: 0.18 mg/kg/injection, schedule: Q01DX009 (ip), vehicle: Klucel (hydroxypropylcellulose) (HPC)): 12 of 12
survivor count (dose: 0.75 mg/kg/injection, schedule: Q01DX009 (ip), vehicle: Klucel (hydroxypropylcellulose) (HPC)): 12 of 12
T/C (dose: 8.0 mg/kg/injection, schedule: Q01DX009 (ip), vehicle: Klucel (hydroxypropylcellulose) (HPC)): 133 % of control
T/C (dose: 8.0 mg/kg/injection, schedule: Q01DX017 (ip), vehicle: saline): 142 % of control
T/C (dose: 8.0 mg/kg/injection, schedule: Q04DX005 (ip), vehicle: saline): 126 % of control
T/C (dose: 12.5 mg/kg/injection, schedule: Q01DX009 (ip), vehicle: saline): 128 % of control
T/C (dose: 15.0 mg/kg/injection, schedule: Q01DX009 (ip), vehicle: Klucel (hydroxypropylcellulose) (HPC)): 144 % of control
survivor count (dose: 16.0 mg/kg/injection, schedule: Q01DX009 (ip), vehicle: Klucel (hydroxypropylcellulose) (HPC)): 7 of 8 and 10 of 10
survivor count (dose: 16.0 mg/kg/injection, schedule: Q01DX017 (ip), vehicle: saline): 10 of 10
T/C (dose: 16.0 mg/kg/injection, schedule: Q04DX005 (ip), vehicle: saline): 135 % of control
survivor count (dose: 24.0 mg/kg/injection, schedule: Q01DX009 (ip), vehicle: Klucel (hydroxypropylcellulose) (HPC)): 2 of 10
T/C [1]: 140 % of control
T/C (dose: 32.0 mg/kg/injection, schedule: Q01DX001 (ip), vehicle: saline): 131 % of control [9 of 10 alive]
survivor count [2]: 7 of 10
survivor count (dose: 32.0 mg/kg/injection, schedule: Q01DX017 (ip), vehicle: saline): 10 of 10
T/C (dose: 32.0 mg/kg/injection, schedule: Q04DX003 (ip), vehicle: saline): 140 % of control [8 of 10 alive]
T/C (dose: 32.0 mg/kg/injection, schedule: Q04DX005 (ip), vehicle: saline): 147 % of control [9 of 10 alive]
survivor count (dose: 48.0 mg/kg/injection, schedule: Q01DX009 (ip), vehicle: Klucel (hydroxypropylcellulose) (HPC)): 0 of 10
survivor count (dose: 64.0 mg/kg/injection, schedule: Q01DX001 (ip), vehicle: saline): 4 of 10
survivor count [3]: 0 of 10
survivor count (dose: 64.0 mg/kg/injection, schedule: Q04DX003 (ip), vehicle: saline): 3 of 10
survivor count (dose: 64.0 mg/kg/injection, schedule: Q04DX005 (ip), vehicle: saline): 6 of 10
survivor count (dose: 128.0 mg/kg/injection, schedule: Q01DX001 (ip), vehicle: saline): 0 of 10
survivor count (dose: 128.0 mg/kg/injection, schedule: Q04DX003 (ip), vehicle: saline): 0 of 10
survivor count (dose: 128.0 mg/kg/injection, schedule: Q04DX005 (ip), vehicle: saline): 0 of 10

COC1C(O)CC(OC2CC(OC3CC(O[C@@H]4C(=O)c5c(cc6cc(OC7CC(OC8CC(O)C(O)C(C)O8)C(O)C(C)O7)c(C)c(O)c6c5O)C[C@H]4[C@H](OC)C(=O)[C@@H](O)[C@@H](C)O)OC(C)C3O)OC(C)C2O)OC1C (stereo partly specified)
T/C (dose: 375.0 micrograms/kg/injection, schedule: Q01DX009 (ip), vehicle: water): 130 % of control
T/C (dose: 750.0 micrograms/kg/injection, schedule: Q01DX009 (ip), vehicle: water): 127 % of control
T/C (dose: 1500.0 micrograms/kg/injection, schedule: Q01DX009 (ip), vehicle: water): 125 and 134 % of control [9 of 10 alive]
survivor count (dose: 3000.0 micrograms/kg/injection, schedule: Q01DX009 (ip), vehicle: water): 9 of 10

CN(CCOc1ccccc1O)CCOc1ccccc1O
survivor count [4]: 2 of 10

COc1cc2ccc(Cc3nccc4cc(OC)c(OC)cc34)cc2cc1OC
survivor count [4]: 8 of 10

COc1cc([C@@H]2c3cc4c(cc3C[C@H]3COC(=O)[C@@H]32)OCO4)cc(OC)c1OC
survivor count (dose: 20.0 mg/kg/injection, schedule: Q01DX009 (ip), vehicle: saline): 10 of 10
survivor count (dose: 40.0 mg/kg/injection, schedule: Q01DX009 (ip), vehicle: saline): 8 of 10

Cc1cc(Cc2cc(C)cc(C(C)(C)C)c2O)c(O)c(Cc2cc(C)cc(C(C)(C)C)c2O)c1
survivor count (dose: 400.0 mg/kg/injection, schedule: Q04DX003 (ip), vehicle: gum acacia): 10 of 10

Nc1ncnc2c(C3OC(CO)C(O)C3O)[nH]nc12 (stereo unspecified)
T/C (dose: 8.0 mg/kg/injection, schedule: Q01DX009 (ip), vehicle: saline): 147 % of control
survivor count (dose: 16.0 mg/kg/injection, schedule: Q01DX009 (ip), vehicle: saline): 6 of 6
survivor count [2]: 6 of 6
survivor count [3]: 6 of 6

Cc1cc(N(C)C)cc(C)c1N=Nc1cc[n+]([O-])cc1
survivor count [5]: 10 of 10
survivor count [6]: 7 of 10
survivor count [7]: 0 of 10

CCN(CC)CCNc1ccc(N=Nc2cnc3ccccc3c2)c2ccccc12
survivor count [5]: 9 of 10
survivor count [6]: 6 of 10

COc1cc(C=Nc2ccc(-c3nc(Cc4ccccc4)sc3C)cc2)ccc1N(CCCl)CCCl
T/C (dose: 25.0 mg/kg/injection, schedule: Q01DX009 (ip), vehicle: Klucel (hydroxypropylcellulose) (HPC)): 134 % of control
survivor count (dose: 50.0 mg/kg/injection, schedule: Q01DX009 (ip), vehicle: Klucel (hydroxypropylcellulose) (HPC)): 9 of 10
survivor count (dose: 100.0 mg/kg/injection, schedule: Q01DX009 (ip), vehicle: Klucel (hydroxypropylcellulose) (HPC)): 9 of 10 and 10 of 10

COc1cc(C(C)c2cc3c(cc2OCCO)OCO3)cc(OC)c1OC (stereo unspecified)
survivor count [7]: 2 of 10

C(CSC1=NCCN1)CSC1=NCCN1
survivor count (dose: 200.0 mg/kg/injection, schedule: Q01DX009 (ip), vehicle: saline): 3 of 10

O=C(CCN1CC1)Nc1cccc(NC(=O)CCN2CC2)c1
T/C (dose: 2.5 mg/kg/injection, schedule: Q01DX009 (ip), vehicle: Klucel (hydroxypropylcellulose) (HPC)): 130 % of control [8 of 10 alive]
survivor count (dose: 20.0 mg/kg/injection, schedule: Q01DX009 (ip), vehicle: Klucel (hydroxypropylcellulose) (HPC)): 9 of 10 and 10 of 10
survivor count (dose: 40.0 mg/kg/injection, schedule: Q01DX009 (ip), vehicle: Klucel (hydroxypropylcellulose) (HPC)): 5 of 10 and 7 of 10
survivor count (dose: 80.0 mg/kg/injection, schedule: Q01DX009 (ip), vehicle: Klucel (hydroxypropylcellulose) (HPC)): 2 of 10

C=CCN1/C(=C/C=C\c2sc3ccccc3[n+]2CC=C)Sc2ccccc21
survivor count [8]: 4 of 6

COc1cc(C(=O)Nc2ccc(N(C)C)cc2)cc(OC)c1OC
T/C (dose: 25.0 mg/kg/injection, schedule: Q04DX003 (ip), vehicle: saline): 125 % of control
T/C (dose: 100.0 mg/kg/injection, schedule: Q04DX003 (ip), vehicle: saline): 136 % of control

O=C(Nc1ccccc1)Nc1cc(C(F)(F)F)ccc1Cl
survivor count (dose: 100.0 mg/kg/injection, schedule: Q04DX003 (ip), vehicle: carboxymethylcellulose (CMC)): 9 of 10

O=NNc1ccccn1
T/C (dose: 6.25 mg/kg/injection, schedule: Q01DX009 (ip), vehicle: saline): 134 % of control
survivor count [1]: 10 of 10

COc1ccc(CC2C(=O)NC(C)C(=O)N(C)C3Cc4ccc(cc4)Oc4cc(ccc4O)CC(C(=O)NC(C)C(=O)NC(C)C(=O)N2C)N(C)C3=O)cc1 (stereo unspecified)
T/C (dose: 0.25 mg/kg/injection, schedule: Q01DX009 (ip), vehicle: saline with Tween-80): 134 % of control
T/C (dose: 0.5 mg/kg/injection, schedule: Q01DX009 (ip), vehicle: saline with Tween-80): 142 % of control
T/C [8]: 133 and 147 % of control
T/C (dose: 2.0 mg/kg/injection, schedule: Q01DX009 (ip), vehicle: saline with Tween-80): 142 % of control
T/C (dose: 4.0 mg/kg/injection, schedule: Q01DX009 (ip), vehicle: saline with Tween-80): 141 % of control
T/C (dose: 8.0 mg/kg/injection, schedule: Q01DX009 (ip), vehicle: saline with Tween-80): 145 % of control [7 of 10 alive]

COC1N(C2CC(O)C(CO)O2)C(=O)NC(=O)C1(F)Br (stereo unspecified)
survivor count (dose: 40.0 mg/kg/injection, schedule: Q01DX009 (ip), vehicle: saline with Tween-80): 6 of 6
survivor count (dose: 50.0 mg/kg/injection, schedule: Q01DX009 (ip), vehicle: saline): 10 of 10
